# At least one compound was matched to its structure with a doubt left.
# Target: T1, 5-HT3 receptors (Rattus norvegicus, UniProt P35563)
# T1 construct: bradycardia induced by stimulation of 5-HT3 receptors on vagal afferent neurons; from tissue; host or cells: whole anesthetized rat; receptors on vagal afferent neurons
# T1 sequence (P35563 24-483): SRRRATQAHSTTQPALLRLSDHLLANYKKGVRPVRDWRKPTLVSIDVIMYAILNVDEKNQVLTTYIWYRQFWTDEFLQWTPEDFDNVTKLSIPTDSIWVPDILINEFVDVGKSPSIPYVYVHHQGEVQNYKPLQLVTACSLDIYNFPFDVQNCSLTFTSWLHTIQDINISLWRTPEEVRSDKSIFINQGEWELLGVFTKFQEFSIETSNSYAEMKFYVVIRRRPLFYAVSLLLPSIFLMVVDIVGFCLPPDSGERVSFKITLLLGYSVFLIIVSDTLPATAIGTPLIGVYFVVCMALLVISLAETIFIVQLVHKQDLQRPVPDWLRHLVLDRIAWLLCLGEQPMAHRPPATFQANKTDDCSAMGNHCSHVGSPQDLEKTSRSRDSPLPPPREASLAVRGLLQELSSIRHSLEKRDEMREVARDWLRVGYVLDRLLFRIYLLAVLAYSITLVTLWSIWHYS
# Assay: Bradycardic Bezold-Jarisch reflex in anesthetized rats
# Type: in vivo, Sprague-Dawley
# Settings: i.v. injection of 30 μg
# Procedure: Bradycardia (Bezold-Jarisch reflex) is induced by the intravenous injection of 5-HT3 serotonin in rats anesthetized with urethane.
# This response consists of a violent but transitory bradycardia induced by stimulation of 5-HT3 receptors on vagal afferent neurons.
# The animal (adult male rat, Sprague-Dawley strain, 250-300 g) is first of all anesthetized with urethane (1.4 g/kg i.p.) and then a tracheotomy is performed in order to implant a tracheal cannula. A catheter (0.3 mm)is introduced into the abdominal aorta via the femoral artery for the continuous recording of the arterial pressure and the cardiac rhythm.
# Bradycardia is expressed as percentage of lowering (maximum) of the base rhythm, before any treatment (means±M.S.D.).
smiles,measurement,setting,value
N=C(N)NC(N)=Nc1ccccc1 [phenylbiguanide],fall in the cardiac rhythm,,-80%
same,duration of the fall in the cardiac rhythm,approximately,4 to 5 s

# From patent US5599812A, “Tricyclic pyrrolopyrazine 5-HT3 -active compounds” (Adir Et Compagnie, priority 1993, dated 1997)
